Experiment [1] relates to Ba/F3-EPOR VF cells (JAK2V617F). The experiment is described as follows: Inhibition of proliferation assay (WST-1, 48 h), Ba/F3-EPOR VF. It counts as cell-based, mouse. Particulars: read-out: IC50 of cell proliferation in the presence of Epo. Here is the method: (§1) Ba/F3-EPOR cells, both wt and VF, HEL and SET2 cells were plated at 2×10^4 in 96-well culture tissue plates with increasing concentrations of the drug(s), in triplicate, and the amount of viable cells was assessed at 48 h using the WST-1 assay (Roche, USA) after normalization to wells containing an equivalent volume of vehicle (DMSO) only. For clonogenic assay, 5×10^3 cells were plated in 0.5% agar in medium supplemented with 10% FBS (plus 1 U/mL EPO in case of Ba/F3-EPOR wt cells); variable amount of the drug(s) (or an equivalent volume of vehicle in control plates) was added once at the beginning of culture. Colonies were enumerated by inverted microscopy after 7 day incubation, in duplicate. Quantification of apoptotic cells was accomplished by flow cytometry using the Annexin-V-FLUOS Staining kit (Roche); at least 20,000 events were acquired. For cell cycle distribution analysis by flow cytometry, 1×10^6 cells were treated with ethanol 95%, RNase 10 µg/mL and propidium iodide 50 mg/mL.
In general terms: Formazan colour is commonly taken as a measure of viable cells.

Experiment [2] has as its system CD34+ cells from PMF patients. The experiment is described as follows: CD34+ proliferation assay (WST-1, 48 h), PMF patients. The format is cell-based, human. The note with it: read-out: IC50 of CD34+ cell proliferation. Here is the method:
(§2) To measure the drug-induced inhibition of CD34^+ cell growth, purified cells were plated at 3·10^4 cells/well in IDMEM supplemented with cytokines and variable amounts of the drugs were added. Cell proliferation was evaluated using the WST-1 Assay (Roche, USA) after 48 h and results were normalized to wells containing vehicle only.
(§3) Figure 2 Inhibition of proliferation of CD34^+ cells from PMF patients by mTOR and JAK2 inhibitors. CD34^+ cells from patients with PMF (n = 6) or control subjects (Ctr; n = 5) were plated at 2×10^5/mL in 96-well culture tissue plates with increasing concentrations of the drugs, in triplicate; viable cells were assessed after 48 hrs using the WST-1 assay and normalized to wells containing an equivalent volume of vehicle (DMSO) only.

Experiment [3] relates to Ba/F3-EPOR VF cells. Kind of experiment: Cell cycle distribution analysis by flow cytometry (propidium iodide), Ba/F3-EPOR VF. The format is cell-based, mouse. The note with it: after 24 hours, median value, read-out: concentration giving 50% reduction of the cells in the S-phase compared to untreated cells. Here is the method:
as §1, with “For cell cycle distribution analysis by flow cytometry, 1×10^6 cells were treated with ethanol 95%, RNase 10 µg/mL and propidium iodide 50 mg/mL.” left out
(§4) In panel A, the frequency of cells in the G0/G1, S and M phase of the cell cycle was measured by flow cytometry after propidium iodide staining of Ba/F3-EPOR VF cells that had been exposed to the drugs for 18 h, and expressed as percent change compared to control cells (Ctrl) with vehicle. […] In panel B, the percentage of Annexin V-positive cells was measured in cultures of Ba/F3-EPOR VF cells exposed to varying amount of the drugs for 48 h; percentage was calculated after subtraction of background apoptosis in cells incubated without drug. […]
(In general: A flow cytometer gives signals particle by particle.)

For a further experiment, the system named is CFU-GM from PMF patients. Kind of experiment: Colony assay for hematopoietic progenitors, CFU-GM, PMF patients. It counts as cell-based, human. The note with it: MF (n = 10), day 14; read-out: IC50, CFU-GM colony formation. The method, then: (§5) Figure 3 mTOR and JAK2 inhibitors preferentially suppress colony formation from hematopoietic progenitors of MPN patients as compared to healthy controls. Mononuclear cells from patients with PV or PMF (n = 10 each) or control subjects (n = 10) were plated at 10^5/mL in cytokine-supplemented methylcellulose medium for the growth of erythroid burst-forming unit (BFU-E) and granulocyte-macrophage colony-forming unit (CFU-GM), and CD34^+ cells (5×10^4/mL) were plated in collagen-based medium for megakaryocyte colony-forming unit (CFU-Mk). […] Colonies were enumerated on day 14 and expressed as a percentage of the colonies grown in control plates containing vehicle only.

Experiment [4] concerns SET2 cells. The experiment is described as follows: Apoptosis (Annexin V flow cytometry), SET2. It counts as cell-based, human. The note with it: SET2, median. The method, then:
as §1

Experiment [5] deals with EEC from peripheral blood mononuclear cells of PV patients. Kind of experiment: EEC assay (erythropoietin-independent erythroid colonies), PV patients. The note with it: read-out: IC50 of EEC growth, single drug, without EPO, scored at 10 days.
The subject of experiment [6] is Ba/F3-EPOR VF cells. Kind of experiment: Apoptosis (Annexin V flow cytometry), Ba/F3-EPOR VF. It counts as cell-based, mouse. Particulars: 48 h, median, read-out: IC50 for apoptosis (Annexin V positive cells). The method, then:
as §1, with “For cell cycle distribution analysis by flow cytometry, 1×10^6 cells were treated with ethanol 95%, RNase 10 µg/mL and propidium iodide 50 mg/mL.” left out
as §4

Another experiment concerns CFU-GM from PV patients. The experiment is described as follows: Colony assay for hematopoietic progenitors, CFU-GM, PV patients. The format is cell-based, human. Particulars: PV (n = 10), day 14; read-out: IC50, CFU-GM colony formation. Here is the method:
as §5

In a further experiment the test system is CFU-Mk from PV patients. The experiment is described as follows: Colony assay for hematopoietic progenitors, CFU-Mk, PV patients. The format is cell-based, human. The note with it: PV (n = 10), day 14; read-out: IC50, CFU-Mk colony formation. The method, then: as §5
The subject of a further experiment is BFU-E from PMF patients. Kind of experiment: Colony assay for hematopoietic progenitors, BFU-E, PMF patients. The format is cell-based, human. Particulars: MF (n = 10), day 14; read-out: IC50, BFU-E colony formation. The method, then: as §5
Experiment [7] concerns CFU-Mk from healthy controls. The experiment is described as follows: Colony assay for hematopoietic progenitors, CFU-Mk, healthy controls. The format is cell-based, human. The note with it: Ctrl (n = 10), day 14; read-out: IC50, CFU-Mk colony formation. The method, then: as §5
Experiment [8] deals with BFU-E from healthy controls. The experiment is described as follows: Colony assay for hematopoietic progenitors, BFU-E, healthy controls. It counts as cell-based, human. Particulars: Ctrl (n = 10), day 14; read-out: IC50, BFU-E colony formation. Here is the method:
as §5

Experiment [9] concerns Ba/F3-EPOR VF cells (JAK2V617F). Kind of experiment: Clonogenic assay in agar, Ba/F3-EPOR VF. The note with it: read-out: IC50 of colony formation (clonogenic assay). It counts as cell-based, mouse. The method, then: as §1
Experiment [10] deals with Ba/F3-EPOR wt cells (JAK2 wild-type). Kind of experiment: Clonogenic assay in agar, Ba/F3-EPOR wt. It counts as cell-based, mouse. Particulars: read-out: IC50 of colony formation (clonogenic assay). The method, then:
as §1

Experiment [11] deals with CFU-GM from healthy controls. The experiment is described as follows: Colony assay for hematopoietic progenitors, CFU-GM, healthy controls. The format is cell-based, human. The note with it: Ctrl (n = 10), day 14; read-out: IC50, CFU-GM colony formation. The method, then: as §5
Another experiment concerns BFU-E from PV patients. The experiment is described as follows: Colony assay for hematopoietic progenitors, BFU-E, PV patients. It counts as cell-based, human. Particulars: PV (n = 10), day 14; read-out: IC50, BFU-E colony formation. Here is the method:
as §5

Experiment [12] relates to HEL cells (JAK2V617F mutated). Kind of experiment: Clonogenic assay in agar, HEL. The format is cell-based, human. The method, then: as §1
Experiment [13] deals with SET2 cells. The experiment is described as follows: Cell cycle distribution analysis by flow cytometry, SET2. The format is cell-based, human. Particulars: SET2, median concentration; read-out: concentration giving 50% reduction of cells in the S-phase compared to controls. Here is the method:
as §1

Experiment [14] relates to CD34+ cells from healthy controls. The experiment is described as follows: CD34+ proliferation assay (WST-1, 48 h), healthy controls. The format is cell-based, human. Particulars: read-out: IC50 of CD34+ cell proliferation. Here is the method:
as §2, §3

We go through one compound from article PMC3561413 (PLoS ONE, 2013).

In the case of `CC(C)n1nc(-c2cc3cc(O)ccc3[nH]2)c2c(N)ncnc21` [PP242], the IC50 in experiment [1] is 750 ± 100 nM; in [2], 800 ± 200 nM; in the experiment with Ba/F3-EPOR VF cells [3], 1870 nM; in the experiment with CFU-GM from PMF patients, 46 ± 20 nM; in the experiment on SET2 cells [4], 5200 nM; in experiment [5], 1 ± 0.7 nM. Also, the IC50 is 4000 nM in the experiment with Ba/F3-EPOR VF cells [6]; 31 ± 15 nM in the experiment with CFU-GM from PV patients; 3 ± 1 nM in the experiment on CFU-Mk from PV patients; 38 ± 8 nM in the experiment with BFU-E from PMF patients; 13 ± 2 nM in experiment [7]; 233 ± 50 nM in experiment [8]. Also, the IC50 in experiment [9] was 47 ± 12 nM; in [10], 308 ± 100 nM; in experiment [11], 148 ± 40 nM; in the experiment with BFU-E from PV patients, 58 ± 18 nM; in experiment [12], 172 ± 59 nM; in the experiment with SET2 cells [13] it was 2700 nM. The IC50 in experiment [14] turned out to be 2900 nM.
